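Whole-parasite assay of Trypanosoma brucei over 72 hours; the read-out is not stated. Compounds at 10 µM. The record gives no direction; compounds that gave an IC50 in retests scored well above the rest, so higher reads as stronger inhibition. Values scatter widely below zero; nearly all retest evidence comes from the higher of the two concentrations used. About 2,700 compounds were tested under these conditions; 0.51% (about 14) showed 50% or more at least once.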

Results are given as percent effect.
How 0% and 100% were set is not recorded. Most values in the screen are low, and negative values occur.
The compounds are a random part of those screened.

Cc1nn(C)c(N2CCOCC2)c1CNCc1ccc(C(C)O)cc1 (centres undefined) read -24.92%. For NC(=O)C1CCCN(c2ccc(CNC(=O)c3cc[nH]n3)cc2)C1 (centres undefined) the result was -39.15%. CCc1nc(CN(C)C2CCN(Cc3nnc(C4CCC4)o3)C2)no1 (centres undefined) read -40.71%. For CC(C)c1nnc(CN2CCN(C(C)c3nc(C4CC4)no3)CC2)o1 (centres undefined) the result was -27.91%. O=C(CSCc1ccncc1)NCc1csc(Br)c1 read -35.87%. Result for Cc1noc(C)c1C(=O)NCc1ccc(N2CCOCC2)nc1 was -14.17%. With CC(=O)Nc1nc(C(=O)NCc2ccc(N3CCOCC3)nc2)cs1 the screen gave -27.16%. CCOc1ncccc1NC(=O)NC1CCCN(S(C)(=O)=O)C1 (centres undefined) read -43.68%.

For Cc1ccc(CNC(=O)Cc2c(C)nc3c(c2C)c(=O)[nH]n3C)cc1 the result was -13.72%. Cn1ccnc1C(NCc1ccc(Br)cc1)c1ccccc1 (centres undefined) gave -57.44%. For Cc1nnc(NC(=O)NCc2ccc(N3CCOCC3)nc2)s1 the result was -38.55%. Cc1csc(C2CCCCN2C(=O)c2cc(C(C)C)[nH]n2)n1 (centres undefined) gave -49.47%. O=C(NCCC1=CCCCC1)Nc1cc(C(F)(F)F)c[nH]c1=O read -89.94%. With Cc1csc(N2CCN(C(=O)c3c(C)oc(C)c3C)CC2)n1 the screen gave -33.4%. For CC(C)NC(=O)c1cc(Br)c2c(c1)OCCO2 the result was -23.66%. CC1CN(C)CCN1Cc1cccc(C(=O)N(C)C)c1 (centres undefined) gave -31.53%.

For Cc1cc(C)n(C2CCCN(C(=O)CCOc3ccccc3F)C2)n1 (centres undefined) the result was -9.618%. Result for CC(C)(C)C(O)CN1CCN(C(=O)c2ccc3c(c2)COC3)CC1 (centres undefined) was -22.91%. Result for c1ccc2nc(CN3CCCC3c3noc(C4CC4)n3)ccc2c1 (centres undefined) was -66.23%. Cc1ccc(CC(=O)N2CCCC(c3cc(C(N)=O)[nH]n3)C2)cn1 (centres undefined) read -56.64%. For Cc1ccc(NS(=O)(=O)c2cc3c(c(C(=O)O)c2)OCCO3)cc1C the result was -30.74%. With O=C(CCc1cccs1)N1CCCC(N2CCNC2=O)C1 (centres undefined) the screen gave -28.33%. Result for CC(C)c1nc(CN(CC(N)=O)C(C)C)cs1 was 7.23%. For CC(=O)Nc1ccc(-n2cncn2)c(F)c1 the result was -31.48%.

CCc1cccc(N2CCC(NC(=O)c3ccoc3C)CC2)c1 gave -33.64%. Result for Cc1nc(C2CCCN2C(=O)c2ccc3c(c2)nc(C)n3C)no1 (centres undefined) was -28.6%. With CCOCC(O)CN1CCN(C(=O)c2cc(C)ccc2OC)CC1 (centres undefined) the screen gave -45.3%. Result for COc1ccccc1C(=O)N(C)Cc1nnc2ccccn12 was -67.53%. With Cc1ccc(NC2CCN(C(=O)c3cc4c(s3)CCC4)CC2)nn1 the screen gave -30.78%. Result for Cc1nc(C)n(C2CCCN(C(=O)c3ccc(F)c(F)c3)C2)n1 (centres undefined) was -23.3%. With Cc1cnn(CC2CCCCN2Cc2cnc(C)s2)c1 (centres undefined) the screen gave -61.29%. Cc1ccc(C(=O)Nc2ccc(S(=O)(=O)/N=C3\CCCN3C)cc2)s1 gave -30.85%.

Result for O=C1CC(N(C(=O)c2ccc(F)c(F)c2)C2CC2)C(=O)N1 (centres undefined) was -38.38%. With Cc1ccc(N2CCCC(NCc3c(C)noc3C)C2)nn1 (centres undefined) the screen gave -50.02%. With CC(C)CC(=O)N(C)CC(=O)Nc1ccc(Br)cn1 the screen gave -48.34%.

Once more, the final 3:

With O=C1CC(N(C(=O)c2ccc(F)c(F)c2)C2CC2)C(=O)N1 (centres undefined) the screen gave -38.38%.
With Cc1ccc(N2CCCC(NCc3c(C)noc3C)C2)nn1 (centres undefined) the screen gave -50.02%.
With CC(C)CC(=O)N(C)CC(=O)Nc1ccc(Br)cn1 the screen gave -48.34%.

Measurements from “University of Dundee, Small-Polar-MMV Screening Library” (2021), ChEMBL document CHEMBL3988442.